Reference: PubChem BioAssay AID540276 (National Center for Advancing Translational Sciences (NCATS), 2011)
Several values for one entry are separate records, joined by “and”; a condition that tells them apart may be missing. Equal values may be shown once. In all, about 300,000 compounds went through this assay and about 5,400 (1.8%) were called active. This list was built around the results that the source calls inconclusive (neither active nor inactive); the mix of calls is not that of the screen. Calls come from the whole dose curve; tested in HEK293 cells. Where the call is inconclusive, the potency comes from a doubtful curve fit. Residues, ends and D or L forms follow the SMILES beside them. *: point of attachment. CH2Cl = ClC*

assay: qHTS for inhibitors of binding or entry into cells for Marburg Virus; details: Marburg virus pseudotyped entry inhibition, cell reporter; activity change, negative = inhibition: at 37.8 µM (top of the series) unless noted
% is set by controls: 0 for no effect and ±100 for the full control effect; potency is the fitted concentration of half-maximal effect.

Row | SMILES | activity change, negative = inhibition | Potency
1 | Cc1onc(-c2ccccc2Cl)c1C(=O)OCC(=O)c1ccc[nH]1 | inactive: -6.73% | –
2 | CCc1ccccc1NC(=S)N(CCN(C)C)C(C)c1ccccn1 (centres undefined) | inactive: -18.3% | –
3 | Cc1c(Cl)cccc1NC(=O)c1ccc2c(c1)CCCN2S(C)(=O)=O | inactive: 21.9% [at 46.1 µM] | –
4 | COc1ccc(C(=O)Cc2nnc(C)s2)c(OC)c1 | – | inconclusive: 3.55 µM [activator, single point]
5 | CCOc1ccc(C(=O)N(CN2CCCC2=O)c2cccc(Cl)c2)cc1 | inactive: -8.55% [at 46.1 µM] | –
6 | C/C(=N\NC(=O)c1nnn(-c2nonc2N)c1C(C)C)c1cc(C)sc1C | inactive: -18.1% [at 46.1 µM] | –
7 | CC1=NN=C(c2ccc(N)cc2)c2cc3c(cc2C1)OCO3 | – | inactive and inconclusive: 631 nM [inhibitor, partial curve, poor fit]
8 | Cc1cc(C)c(NC(=O)CSc2nnc(CNC(=O)c3ccco3)o2)c(C)c1 | – | inconclusive: 11.2 µM [activator, partial curve, poor fit]
9 | CC(C)c1ccc(OCc2nnc(SCC(=O)N3CCCCC3)o2)cc1 | – | inconclusive: 35.5 µM [inhibitor, single point]
10 | CC(C)N=C(NS(=O)(=O)c1ccc(Br)cc1)c1ccc(Cl)cc1 | inactive: 4.77% [at 46.1 µM] | –
11 | O=C1NCC(COCC2CC=CCC2)O1 (centres undefined) | – | inconclusive: 3.66 µM [inhibitor, partial curve, poor fit]
12 | Cc1cc(C(=O)NN=Cc2ccc(OC(=O)c3ccco3)cc2)c(C)o1 | – | inconclusive: 11.2 µM [activator, partial curve, poor fit]
13 | CCCOc1ccc(N2C(=O)CC(S/C(N)=N/N=C(\C)c3cccs3)C2=O)cc1 (centres undefined) | – | inconclusive: 29.1 µM [inhibitor, single point]
14 | CN(CC(=O)Nc1ccc(Cl)c(C(F)(F)F)c1)C(=O)c1cccc2cccnc12 | – | inconclusive: 1.26 µM [inhibitor, single point]
15 | CN(Cc1ccccc1)C(=O)C1CCN(S(=O)(=O)c2cccc3nonc23)CC1 | inactive: -1.03% [at 46.1 µM] | –
16 | Fc1cccc(Cl)c1Cn1nnc2c(NCc3ccncc3)ncnc21 | inactive: -25% [at 46.1 µM] | –
17 | Nc1cc(Br)c(N)c(Br)c1 | – | inconclusive: 23.1 µM [inhibitor, single point]
18 | COC(=O)c1cn(NC(=O)c2ccncc2)c(=O)c2ccccc12 | – | inconclusive: 0.146 µM [inhibitor, single point]
19 | Cc1ccc(NC(=O)CCc2ccc(C)o2)cc1 | inactive: 13% [at 46.1 µM] | –
20 | C=CCNC(=S)NC1CC(C)(C)NC(C)(C)C1 | – | inconclusive: 0.708 µM [inhibitor, partial curve, poor fit]
21 | CCN(CC)CCCN1C(=O)C(=O)/C(=C(/O)c2ccccc2)C1c1cc(OC)ccc1OC (centres undefined) | – | inconclusive: 3.98 µM [activator, single point]
22 | COC(=O)C1C2CC(=O)C(C2)C1C(=O)OC (centres undefined) | – | inconclusive: 6.31 µM [activator, full curve, poor fit]
23 | CCOCCCNC(=O)C(c1ccccc1)N(Cc1ccc2c(c1)OCO2)C(=O)c1ccc(NC(C)=O)cc1 (centres undefined) | – | inconclusive: 35.5 µM [inhibitor, single point]

Row | SMILES | activity change, negative = inhibition | Potency
24 | COCCNC(=O)CNC(=S)N(Cc1ccccc1)Cc1cccnc1 | inactive: -29.5% | –
25 | Cc1nn(C)c(C)c1S(=O)(=O)NC1CCCc2ccccc21 (centres undefined) | – | inconclusive: 12.6 µM [inhibitor, partial curve, poor fit]
26 | Cc1ccc(C(C(=O)NCC2CCCO2)N(C(=O)c2snc(C(N)=O)c2N)c2ccc(F)cc2)o1 (centres undefined) | – | inconclusive: 20 µM [inhibitor, single point]
27 | CC1CCC(NC(=O)c2cccc(S(=O)(=O)N3CCN(C)CC3)c2)CC1 (centres undefined) | inactive: 2.41% | –
28 | CC(=O)N1c2ccc(S(=O)(=O)N(C)CC(=O)NCc3ccccc3)cc2CC1C (centres undefined) | – | inconclusive: 35.5 µM [activator, single point]
29 | Cc1cc(C(=O)COC(=O)c2ccc[nH]c2=O)c(C)n1-c1ccc(Br)cc1 | – | inconclusive: 0.1 µM [inhibitor, full curve, poor fit]
30 | COc1ccc(F)cc1S(=O)(=O)Nc1cccc(C(=O)O)c1 | – | inconclusive: 35.5 µM [inhibitor, single point]
31 | CSc1nc(N(CCO)CCO)c2sc3nc(-c4ccco4)c4c(c3c2n1)CCC4 | – | inconclusive: 35.5 µM [inhibitor, single point]
32 | C[C@]12CC[C@@H]3c4ccc(O)cc4C[C@@H](CCCCCCCCCS(=O)CCCC(F)(F)C(F)(F)F)[C@H]3[C@@H]1CC[C@@H]2O (some centres undefined) | – | inconclusive: 10.3 µM [inhibitor, partial curve]
33 | Cc1nn(C)c(C)c1CNC(=O)Nc1ccc(Cl)cc1 | – | inconclusive: 5.62 µM [activator, single point]
34 | C/C(=C\C(=O)c1ccc(Br)cc1)NCc1ccc(C)cc1 | inactive: 6.36% | –
35 | COc1ccc(C(C(=O)NCc2ccccc2)N(C(=O)c2snc(C(N)=O)c2N)c2ccccc2OC)cc1OC (centres undefined) | inactive: -25.3% [at 46.1 µM] | –
36 | CCOc1ccccc1N1C(=O)c2ccc(S(=O)(=O)c3ccc(C(=O)O)cc3)cc2C1=O | inactive: -6.29% [at 46.1 µM] | –
37 | Cc1ccc(OCC(=O)NNC(=O)c2cc3ccccc3o2)cc1C | inactive: 19.6% | –
38 | O=C(NCC(O)c1ccccc1)c1ccccc1 (centres undefined) | – | inconclusive: 35.5 µM [inhibitor, single point]
39 | CCn1c(-c2nonc2NC(=O)c2ccccc2)nc2ccccc21 | – | inconclusive: 5.8 µM [inhibitor, partial curve]
40 | Cc1ccc(NC(=O)CN(C)C(=O)Cc2ccc(Cl)c(Cl)c2)cc1 | inactive: 0.413% [at 46.1 µM] | –
41 | COc1ccc(/C=C(\NC(=O)c2ccccc2Cl)C(=O)NCCCC(=O)O)cc1 | inactive: 2.17% [at 46.1 µM] | –
42 | CC1(C)CC(NC(=O)Nc2ccc([N+](=O)[O-])cc2)CC(C)(C)N1 | inactive: 0.163% [at 46.1 µM] | –
43 | Cc1nn(-c2ccccc2)c(N2CCCC2)c1/C=N/O | inactive: 5.76% | –
44 | CC1CCCCC1NC(=O)c1cn(C)c2ccc(S(=O)(=O)N3CCCC3)cc2c1=O (centres undefined) | – | inconclusive: 29.1 µM [inhibitor, single point]
45 | O=C(CCCn1c(SCC(=O)c2ccc(F)cc2)nc2ccccc2c1=O)NCc1ccccc1 | – | inconclusive: 0.116 µM [inhibitor, full curve, poor fit]
46 | O=C(N/N=C/C=C/c1ccccc1[N+](=O)[O-])c1cccs1 | – | inconclusive: 14.1 µM [activator, partial curve, poor fit]

Some of these compounds in order of molecular weight, ascending:
Row | SMILES | activity change, negative = inhibition | Potency
38 | O=C(NCC(O)c1ccccc1)c1ccccc1 (centres undefined) | – | inconclusive: 35.5 µM [inhibitor, single point]
40 | Cc1ccc(NC(=O)CN(C)C(=O)Cc2ccc(Cl)c(Cl)c2)cc1 | inactive: 0.413% [at 46.1 µM] | –
26 | Cc1ccc(C(C(=O)NCC2CCCO2)N(C(=O)c2snc(C(N)=O)c2N)c2ccc(F)cc2)o1 (centres undefined) | – | inconclusive: 20 µM [inhibitor, single point]

Single records, from the list above. Order of values: activity change, negative = inhibition | Potency
Cc1nn(C)c(C)c1CNC(=O)Nc1ccc(Cl)cc1 in the list: – | inconclusive: 5.62 µM [activator, single point]
O=C(CCCn1c(SCC(=O)c2ccc(F)cc2)nc2ccccc2c1=O)NCc1ccccc1 in the list: – | inconclusive: 0.116 µM [inhibitor, full curve, poor fit]

Remaining list, next part:

Row | SMILES | activity change, negative = inhibition | Potency
47 | COc1cccc(Oc2ccc(C(F)(F)F)cc2NC(=O)CCc2nc3ccccc3c(=O)[nH]2)c1 | – | inconclusive: 35.5 µM [inhibitor, partial curve, poor fit]
48 | CCCCn1cnc2cc(NCc3ccc(OCC)cc3)ccc21 | inactive: -19% [at 46.1 µM] | –
49 | N/C(=N\OC(=O)N1c2ccccc2Sc2ccccc21)c1ccccc1 | inactive: -23.8% | –
50 | CCOc1ccc(C(C(=O)NC2CCCCC2)N(CCOC)C(=O)c2snc(C(N)=O)c2N)cc1 (centres undefined) | inactive: 8.6% [at 46.1 µM] | –
51 | COc1cccc(C(=O)N/N=c2\sc3ccccc3n2C)c1 | – | inconclusive: 35.5 µM [activator, single point]
52 | Cc1ccc(SCC(=O)NC(=O)NC2CCCC2)c(C)c1 | – | inconclusive: 25.1 µM [inhibitor, single point]
53 | C[C@@H](NC(=O)/C(C#N)=C/c1ccc(O)c(O)c1)c1ccccc1 | – | inconclusive: 8.91 µM [inhibitor, partial curve]
54 | CC(=O)NC(CC(C)C)C(=O)NC(Cc1ccccc1)C(=O)CCl (stereo not drawn) (Ac-Leu-Phe-CH2Cl; configuration not given here) | – | inconclusive: 15.8 µM [inhibitor, partial curve, poor fit]
55 | CC(C)(C)c1nc2ccccc2c2nnc(SCC(=O)Nc3nc4ccccc4s3)n12 | – | inconclusive: 23.1 µM [inhibitor, single point]
56 | O=C(Nc1ccc2c(c1)OCCO2)c1ccc2nccnc2c1 | – | inconclusive: 29.1 µM [inhibitor, single point]
57 | O=C(CCN=C1NS(=O)(=O)c2ccccc21)N1CCc2ccccc2C1 | inactive: 13.4% [at 46.1 µM] | –
58 | Cc1ccc(NC(=O)CN(C)C(C)C(=O)Nc2ccc(S(=O)(=O)N3CCCC3)cc2)cc1 (centres undefined) | inactive: -3.93% | –
59 | CC(=Nc1ccc2c(c1)CCC2)c1c(O)n(C)c(=O)n(C)c1=O | inactive: -0.742% | –
60 | CC(C)N(Cc1ccccc1)C(=S)NCCN1CCOCC1 | inactive: 12.4% [at 46.1 µM] | –
61 | CCC(C)[C@H](NC(=O)OC(C)(C)C)C(=O)N/N=C/C1=Cc2ccccc2OC1 (some centres undefined) | – | inconclusive: 1.64 µM [inhibitor, partial curve, poor fit]
62 | O=C(CCSc1nc2ccccc2o1)N1CCOCC1 | – | inconclusive: 35.5 µM [activator, single point]
63 | COc1ccc(Oc2nc(-c3ccccn3)nc3ccccc23)cc1 | – | inconclusive: 20 µM [inhibitor, single point]
64 | COc1ccc(C(CNS(=O)(=O)c2ccc(C)cc2)N2CCN(C)CC2)cc1 (centres undefined) | – | inconclusive: 35.5 µM [inhibitor, single point]
65 | C=CCNC(=O)c1cc(-c2ccc(Br)cc2)on1 | – | inconclusive: 1.3 µM [activator, full curve, poor fit]
66 | CCN(C(=O)Cn1c(=O)n(-c2ccccc2)c(=O)c2ccc(C(=O)NCc3ccc4c(c3)OCO4)cc21)c1cccc(C)c1 | – | inconclusive: 15.8 µM [inhibitor, partial curve, poor fit]
67 | CNC(=O)c1ccc2c(c1)nnn2C | inactive: 3.05% | –
68 | CC(C)CCN(C(=O)c1csnn1)C(C(=O)NC1CCCC1)c1ccccc1 (centres undefined) | – | inconclusive: 10 µM [inhibitor, partial curve, poor fit]
69 | CCN(CC)CCNC(=O)CCCCCn1c(=O)[nH]c2cc(C(=O)OC)ccc2c1=O | – | inconclusive: 18.3 µM [inhibitor, partial curve]
